Measured values as given in the supplement of paper PMC12823440, “Inhibitors supercharge kinase turnover through native proteolytic circuits” (Nature, 2025).
Structures can show the parent of a compound that is named as a salt. The list shows a part of the results. Hit calls seldom repeat between salt and free forms of one compound.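 In K562 cells expressing nanoluciferase-fused kinases, luminescence was recorded at 4 h intervals between 2 and 18 h, normalized as percent of control with DMSO at 100% and a positive control at 0%. A significant (2 sigma) signal drop marks a time point as decreased. The authors' rule for a hit is not shown and takes in more than the number of time points.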

Chains of the proteins cited; added tags and fusions are not shown. Lines headed by an entry give the natural chain unless they say otherwise; changes in a name come on top.
UniProt O96013: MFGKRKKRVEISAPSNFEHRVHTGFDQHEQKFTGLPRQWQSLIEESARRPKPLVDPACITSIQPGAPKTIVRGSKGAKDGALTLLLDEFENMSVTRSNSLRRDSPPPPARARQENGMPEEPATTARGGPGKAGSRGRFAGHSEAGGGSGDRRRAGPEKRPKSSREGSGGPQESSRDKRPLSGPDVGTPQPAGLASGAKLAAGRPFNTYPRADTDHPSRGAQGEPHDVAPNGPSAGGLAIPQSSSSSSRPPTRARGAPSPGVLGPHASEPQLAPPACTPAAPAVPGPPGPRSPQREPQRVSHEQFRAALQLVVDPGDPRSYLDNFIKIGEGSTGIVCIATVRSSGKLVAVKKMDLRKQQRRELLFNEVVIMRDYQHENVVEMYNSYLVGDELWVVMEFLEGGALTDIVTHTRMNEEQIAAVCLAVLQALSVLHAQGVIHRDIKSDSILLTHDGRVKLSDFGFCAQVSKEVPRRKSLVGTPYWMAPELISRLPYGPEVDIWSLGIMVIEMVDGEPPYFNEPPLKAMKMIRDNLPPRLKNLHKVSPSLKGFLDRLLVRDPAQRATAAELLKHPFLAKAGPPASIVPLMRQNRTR
UniProt Q96KB5: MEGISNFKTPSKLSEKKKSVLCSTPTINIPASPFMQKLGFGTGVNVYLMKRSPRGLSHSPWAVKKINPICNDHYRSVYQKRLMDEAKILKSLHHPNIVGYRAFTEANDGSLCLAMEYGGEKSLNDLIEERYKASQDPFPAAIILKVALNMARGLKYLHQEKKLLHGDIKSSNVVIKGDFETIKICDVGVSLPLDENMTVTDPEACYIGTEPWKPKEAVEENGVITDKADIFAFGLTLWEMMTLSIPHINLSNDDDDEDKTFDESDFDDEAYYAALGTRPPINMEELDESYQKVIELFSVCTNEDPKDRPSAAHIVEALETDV
UniProt P09619, whole entry: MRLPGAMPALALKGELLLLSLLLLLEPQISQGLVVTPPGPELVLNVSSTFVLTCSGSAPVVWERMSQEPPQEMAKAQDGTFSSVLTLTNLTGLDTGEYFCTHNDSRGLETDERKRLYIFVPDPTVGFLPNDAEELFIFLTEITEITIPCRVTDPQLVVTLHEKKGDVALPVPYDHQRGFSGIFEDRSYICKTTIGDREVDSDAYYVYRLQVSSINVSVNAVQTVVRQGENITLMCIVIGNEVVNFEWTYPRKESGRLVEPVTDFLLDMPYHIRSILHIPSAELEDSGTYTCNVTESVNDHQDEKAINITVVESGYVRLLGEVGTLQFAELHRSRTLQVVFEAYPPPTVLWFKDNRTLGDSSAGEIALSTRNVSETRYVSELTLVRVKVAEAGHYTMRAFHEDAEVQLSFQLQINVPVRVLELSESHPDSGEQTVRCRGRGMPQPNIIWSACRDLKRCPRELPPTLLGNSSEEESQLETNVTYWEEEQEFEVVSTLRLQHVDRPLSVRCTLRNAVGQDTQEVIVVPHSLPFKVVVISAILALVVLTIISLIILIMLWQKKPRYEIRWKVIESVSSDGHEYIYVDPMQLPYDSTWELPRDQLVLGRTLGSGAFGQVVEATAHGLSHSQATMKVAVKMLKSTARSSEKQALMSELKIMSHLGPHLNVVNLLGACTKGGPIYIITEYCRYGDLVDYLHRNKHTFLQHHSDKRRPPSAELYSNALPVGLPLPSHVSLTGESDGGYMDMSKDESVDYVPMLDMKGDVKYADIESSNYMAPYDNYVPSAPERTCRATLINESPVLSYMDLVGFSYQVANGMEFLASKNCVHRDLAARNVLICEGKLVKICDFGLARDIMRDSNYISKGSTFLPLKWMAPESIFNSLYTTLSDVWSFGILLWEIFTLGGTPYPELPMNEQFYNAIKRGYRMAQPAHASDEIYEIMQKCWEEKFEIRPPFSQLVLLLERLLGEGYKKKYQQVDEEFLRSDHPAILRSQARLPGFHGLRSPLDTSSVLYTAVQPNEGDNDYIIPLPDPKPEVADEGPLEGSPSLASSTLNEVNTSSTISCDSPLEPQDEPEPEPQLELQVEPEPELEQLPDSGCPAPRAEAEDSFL
UniProt Q15118, whole entry, looked up: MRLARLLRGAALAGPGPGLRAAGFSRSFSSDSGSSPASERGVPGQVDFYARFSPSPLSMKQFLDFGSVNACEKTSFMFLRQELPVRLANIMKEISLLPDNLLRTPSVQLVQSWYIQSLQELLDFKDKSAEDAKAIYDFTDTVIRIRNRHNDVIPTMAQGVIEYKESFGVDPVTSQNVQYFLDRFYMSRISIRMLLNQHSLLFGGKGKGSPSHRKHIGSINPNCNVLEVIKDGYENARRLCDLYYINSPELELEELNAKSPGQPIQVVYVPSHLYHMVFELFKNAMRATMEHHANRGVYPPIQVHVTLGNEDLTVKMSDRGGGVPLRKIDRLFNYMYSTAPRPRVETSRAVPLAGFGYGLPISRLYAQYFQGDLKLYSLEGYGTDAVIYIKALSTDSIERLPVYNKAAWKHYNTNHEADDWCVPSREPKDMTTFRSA
UniProt O15530: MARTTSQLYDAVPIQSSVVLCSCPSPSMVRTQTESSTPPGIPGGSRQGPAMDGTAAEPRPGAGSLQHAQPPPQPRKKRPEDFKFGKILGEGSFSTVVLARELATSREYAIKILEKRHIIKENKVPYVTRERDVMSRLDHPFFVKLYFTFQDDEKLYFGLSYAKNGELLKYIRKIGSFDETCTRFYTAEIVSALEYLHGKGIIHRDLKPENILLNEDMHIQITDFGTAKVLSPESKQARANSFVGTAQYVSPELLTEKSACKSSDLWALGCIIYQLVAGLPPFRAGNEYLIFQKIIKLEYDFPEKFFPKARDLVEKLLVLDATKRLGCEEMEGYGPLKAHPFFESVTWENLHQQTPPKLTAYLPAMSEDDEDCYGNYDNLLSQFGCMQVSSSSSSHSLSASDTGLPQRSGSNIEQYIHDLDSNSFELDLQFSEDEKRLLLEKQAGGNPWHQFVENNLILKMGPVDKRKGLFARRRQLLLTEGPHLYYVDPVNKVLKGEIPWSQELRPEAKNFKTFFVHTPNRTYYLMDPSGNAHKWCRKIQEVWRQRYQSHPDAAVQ
UniProt P42356, whole entry, looked up: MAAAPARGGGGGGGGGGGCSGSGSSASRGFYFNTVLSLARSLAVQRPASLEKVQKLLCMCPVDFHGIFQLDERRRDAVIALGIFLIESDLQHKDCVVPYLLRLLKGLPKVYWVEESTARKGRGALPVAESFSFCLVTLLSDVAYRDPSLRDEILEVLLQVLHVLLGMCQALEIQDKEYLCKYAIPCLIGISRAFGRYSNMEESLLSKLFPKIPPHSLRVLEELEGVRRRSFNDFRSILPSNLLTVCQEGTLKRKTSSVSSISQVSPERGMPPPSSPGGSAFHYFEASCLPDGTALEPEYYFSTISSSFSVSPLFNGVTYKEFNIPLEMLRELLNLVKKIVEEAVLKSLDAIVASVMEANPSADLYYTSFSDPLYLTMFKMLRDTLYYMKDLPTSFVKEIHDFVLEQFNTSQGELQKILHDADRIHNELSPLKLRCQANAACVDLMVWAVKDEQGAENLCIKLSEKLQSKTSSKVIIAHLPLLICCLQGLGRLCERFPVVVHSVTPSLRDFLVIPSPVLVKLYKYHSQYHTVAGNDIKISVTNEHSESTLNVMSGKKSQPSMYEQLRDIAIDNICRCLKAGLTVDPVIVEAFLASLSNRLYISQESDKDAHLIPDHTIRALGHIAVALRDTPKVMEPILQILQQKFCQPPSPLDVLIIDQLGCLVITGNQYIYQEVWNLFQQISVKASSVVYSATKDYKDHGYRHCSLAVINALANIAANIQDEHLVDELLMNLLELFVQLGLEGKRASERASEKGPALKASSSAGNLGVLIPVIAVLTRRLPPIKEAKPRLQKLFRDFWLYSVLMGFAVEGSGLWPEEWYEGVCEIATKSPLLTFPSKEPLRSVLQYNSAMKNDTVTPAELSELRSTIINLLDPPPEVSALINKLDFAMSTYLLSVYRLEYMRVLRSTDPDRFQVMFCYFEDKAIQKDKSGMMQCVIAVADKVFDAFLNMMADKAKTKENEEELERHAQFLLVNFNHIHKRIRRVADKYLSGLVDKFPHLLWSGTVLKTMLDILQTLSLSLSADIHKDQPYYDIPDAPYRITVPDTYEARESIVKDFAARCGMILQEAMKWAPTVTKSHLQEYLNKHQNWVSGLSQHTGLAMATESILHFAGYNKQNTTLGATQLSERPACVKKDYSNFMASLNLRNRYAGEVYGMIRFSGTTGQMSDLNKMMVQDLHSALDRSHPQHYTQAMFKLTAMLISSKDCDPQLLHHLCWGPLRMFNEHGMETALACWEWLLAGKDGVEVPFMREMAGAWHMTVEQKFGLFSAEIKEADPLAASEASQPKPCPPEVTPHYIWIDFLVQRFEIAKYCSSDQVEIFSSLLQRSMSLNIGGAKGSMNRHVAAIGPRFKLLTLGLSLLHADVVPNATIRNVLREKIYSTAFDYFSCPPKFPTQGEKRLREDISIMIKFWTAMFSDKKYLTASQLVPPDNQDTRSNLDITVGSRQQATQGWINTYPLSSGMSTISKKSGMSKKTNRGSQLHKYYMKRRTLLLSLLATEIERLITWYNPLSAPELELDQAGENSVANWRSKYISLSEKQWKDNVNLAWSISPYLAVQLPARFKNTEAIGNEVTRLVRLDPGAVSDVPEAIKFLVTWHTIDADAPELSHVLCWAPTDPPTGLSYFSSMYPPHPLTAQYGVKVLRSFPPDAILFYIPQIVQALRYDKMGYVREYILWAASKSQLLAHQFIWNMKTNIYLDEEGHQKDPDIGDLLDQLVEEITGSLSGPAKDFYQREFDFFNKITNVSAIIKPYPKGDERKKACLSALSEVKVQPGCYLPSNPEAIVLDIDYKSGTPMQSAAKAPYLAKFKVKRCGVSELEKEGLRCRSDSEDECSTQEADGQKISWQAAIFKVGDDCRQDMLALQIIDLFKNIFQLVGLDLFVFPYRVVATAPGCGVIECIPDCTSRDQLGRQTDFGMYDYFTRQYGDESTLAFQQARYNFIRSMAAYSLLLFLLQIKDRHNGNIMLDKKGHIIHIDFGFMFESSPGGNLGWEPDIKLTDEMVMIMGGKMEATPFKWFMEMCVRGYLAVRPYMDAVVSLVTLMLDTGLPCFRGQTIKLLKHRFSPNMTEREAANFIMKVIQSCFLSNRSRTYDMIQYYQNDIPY
UniProt Q9UBF8: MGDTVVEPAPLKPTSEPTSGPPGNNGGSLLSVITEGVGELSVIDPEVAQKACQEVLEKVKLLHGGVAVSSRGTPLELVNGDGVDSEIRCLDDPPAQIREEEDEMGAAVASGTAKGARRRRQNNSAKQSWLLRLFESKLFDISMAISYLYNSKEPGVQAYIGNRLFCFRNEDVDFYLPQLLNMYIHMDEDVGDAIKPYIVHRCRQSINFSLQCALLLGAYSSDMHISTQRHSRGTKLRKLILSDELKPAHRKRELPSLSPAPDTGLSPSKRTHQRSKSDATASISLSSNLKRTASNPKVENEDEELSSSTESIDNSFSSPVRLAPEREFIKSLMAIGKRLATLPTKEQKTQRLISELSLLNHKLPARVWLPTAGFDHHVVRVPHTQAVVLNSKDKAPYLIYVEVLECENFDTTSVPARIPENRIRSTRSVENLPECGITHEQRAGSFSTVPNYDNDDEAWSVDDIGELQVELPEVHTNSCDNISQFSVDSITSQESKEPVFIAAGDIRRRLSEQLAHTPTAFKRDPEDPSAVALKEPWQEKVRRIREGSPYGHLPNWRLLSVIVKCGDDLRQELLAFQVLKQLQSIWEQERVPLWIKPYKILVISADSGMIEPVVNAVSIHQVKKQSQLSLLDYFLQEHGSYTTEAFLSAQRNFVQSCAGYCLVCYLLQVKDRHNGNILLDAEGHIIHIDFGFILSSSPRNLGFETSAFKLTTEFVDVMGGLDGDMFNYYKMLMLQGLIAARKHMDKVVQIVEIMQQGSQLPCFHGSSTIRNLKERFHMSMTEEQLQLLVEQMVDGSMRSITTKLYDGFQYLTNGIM
UniProt P53350, whole entry: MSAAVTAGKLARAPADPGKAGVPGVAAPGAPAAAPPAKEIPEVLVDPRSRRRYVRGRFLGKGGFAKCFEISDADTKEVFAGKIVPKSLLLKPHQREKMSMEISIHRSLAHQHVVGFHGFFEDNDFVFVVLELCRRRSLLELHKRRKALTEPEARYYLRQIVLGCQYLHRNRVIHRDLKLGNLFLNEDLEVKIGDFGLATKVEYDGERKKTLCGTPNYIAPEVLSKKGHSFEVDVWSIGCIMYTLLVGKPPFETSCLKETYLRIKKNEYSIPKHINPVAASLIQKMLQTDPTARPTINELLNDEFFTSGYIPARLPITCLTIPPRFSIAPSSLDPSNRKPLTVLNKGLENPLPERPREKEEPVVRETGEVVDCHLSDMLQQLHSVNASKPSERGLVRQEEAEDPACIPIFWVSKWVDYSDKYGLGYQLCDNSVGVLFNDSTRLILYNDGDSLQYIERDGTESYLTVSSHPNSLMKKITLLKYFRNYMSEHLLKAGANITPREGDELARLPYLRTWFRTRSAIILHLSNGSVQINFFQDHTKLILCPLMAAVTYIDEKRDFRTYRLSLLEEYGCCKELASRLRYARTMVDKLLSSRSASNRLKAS

Legend:
Experiment in all cases: number of time points (of 5) at which kinase-Nluc abundance scored as decreased, DMSO-normalised (count); higher = more persistent destabilization
Conditions in all cases: K562; 2-18 h
NTRK3 = NTRK3 (UniProt Q16288)
PAK4 = PAK4 (UniProt O96013)
PBK = PBK (UniProt Q96KB5)
PDGFRB = PDGFRB (UniProt P09619)
PDK1 = PDK1 (UniProt Q15118)
PDPK1 = PDPK1 (UniProt O15530)
PIK4CA = PIK4CA (UniProt P42356)
PIK4CB = PIK4CB (UniProt Q9UBF8)
PLK1 = PLK1 (UniProt P53350)
PRKAA1 = PRKAA1 (UniProt Q13131)

Measured: number of time points

Cc1cc(C)nc(NS(=O)(=O)c2ccc(NC(=S)NC(=O)COc3ccc(Br)cc3Cl)cc2)n1 (2.5 µM)
0: all assays above

CC(C)=CC(=O)O[C@H]1Cc2cc3ccc(=O)oc3cc2OC1(C)C [Decursin] (10 µM)
0: all assays above

COc1c(Nc2cc(C)[nH]n2)nc(Sc2ccc(S(=O)(=O)Cc3cccc([N+](=O)[O-])c3F)cc2F)nc1N1CCCCC1 [Centrinone-B] (2.5 µM)
0: all assays above

C=C[C@@](C)(/C=C/c1ccc(O)cc1)CCC=C(C)C [Bakuchiol] (10 µM)
0: all assays above

Cc1cccc2c3c(ccc12)C(=O)C1=C(OCC1C)C3=O (stereo not given) [Dihydroisotanshinone I] (2.5 µM)
0: all assays above

Oc1cc(O)c2c(c1)OC1(c3ccc(O)c(O)c3)Oc3cc(O)c4c(c3C2C1O)OC(c1ccc(O)c(O)c1)C(O)C4 (stereo not given) [Procyanidin A1] (10 µM)
0: all assays above

Cn1cnc([N+](=O)[O-])c1C[N+](C)(C)C/C=C/C(=O)Nc1cc2c(Nc3ccc(Cl)c(Br)c3)ncnc2cn1 [Tarloxotinib (bromide)] (10 µM)
0: all assays above

CNC(=O)c1ccccc1Oc1nc(Nc2cc(OC)c(OC)c(OC)c2)ncc1Br (2.5 µM)
0: all assays above

CNC(=O)c1cc2c(Oc3ccc(NC(=S)NC(=O)Cc4ccccc4)cc3F)ccnc2cc1OC [TAS-115 mesylate] (10 µM)
1: PRKAA1
4: PDPK1
3: PIK4CA | PIK4CB | PLK1
0: all other assays above

NC(=S)n1[nH]c(-c2ccc([N+](=O)[O-])cc2)c(N=Nc2cccc(Cl)c2)c1=O (2.5 µM)
0: all assays above

Cc1nn(C)c2c1C(c1ccc(C(F)(F)F)cc1)C(C#N)=C(N)O2 (stereo not given) (10 µM)
0: all assays above

COc1cc2ncnc(Nc3ccc(F)c(Cl)c3)c2cc1NC(=O)/C=C/CN1CCCCC1 [Dacomitinib] (10 µM)
0: all assays above

CC/C(=N\NC(=O)c1ccnc(NCCCN2CCOCC2)c1)c1ccc(Cl)cc1O (2.5 µM)
0: all assays above

Cc1ccc(NC(=O)c2ccc(CN(CCN(C)C)C(=O)c3cccnc3)cc2)cc1Nc1nccc(-c2cccnc2)n1 [PDGFRα kinase inhibitor 1] (10 µM)
0: all assays above

C=CC(=O)Nc1cccc(CNc2nc(Nc3ccc(N4CCN(C)CC4)cc3OC)ncc2Cl)c1 (10 µM)
0: all assays above

Cc1cnc(-c2ccc(-c3ccc(NC(=O)Nc4cccc(C(F)(F)F)c4)cc3F)c3c2C(=O)NC3)[nH]1 (10 µM)
4: PDGFRB
2: PIK4CB
0: all other assays above

Nc1c(C(=O)NCc2ccc(C(=O)NCCCC3CCCCC3)cc2)cnn1-c1ccccc1 (2.5 µM)
0: all assays above

COc1ccc2cc(-c3nc(-c4ccc([S+](C)[O-])cc4)[nH]c3-c3ccncc3)ccc2c1 (stereo not given) [Tie2 kinase inhibitor 1] (2.5 µM)
0: all assays above

CCN(CC)CCC(=O)N1N=C(c2c(-c3ccccc3)c3cc(Br)ccc3[nH]c2=O)CC1c1ccc(Br)cc1 (stereo not given) (2.5 µM)
0: all assays above

CCCNC(=O)Nc1ccc(Oc2ncnc3cc(OC)c(OC)cc23)cc1Cl (2.5 µM)
0: all assays above

CC(C)CNc1ccnc(NCc2csc(-c3ccccc3)n2)n1 [KHS101 hydrochloride] (2.5 µM)
2: PIK4CB
0: all other assays above

NC(=O)N1CCC(CC(=O)N2CCC([C@H]3c4ncc(Br)cc4CCc4cc(Cl)cc(Br)c43)CC2)CC1 [Lonafarnib] (2.5 µM)
0: all assays above

O=C(Nc1cccc(Nc2ncc(Br)c(NCCc3cnc[nH]3)n2)c1)N1CCCC1 (10 µM)
4: PDPK1
2: PIK4CA
3: PDGFRB | PRKAA1
0: all other assays above

CC(C)(C[C@H](N)C(=O)O)C(F)F [NV-5138 (hydrochloride)] (10 µM)
0: all assays above

COc1ccc(-c2coc3cc(O)ccc3c2=O)cc1 [Formononetin] (10 µM)
0: all assays above

Cc1cc(-c2ccnc(Nc3cnn(C)c3)n2)ccc1CNC(=O)N1CC(OC(C)C)C1 (10 µM)
0: all assays above

Cc1ccc(C(=O)Nc2sc(Nc3ccccc3)nc2C(N)=O)cc1 (10 µM)
0: all assays above

COc1cc2ncnc(-n3nc(-c4ccccn4)nc3N)c2cc1OC (10 µM)
0: all assays above

CNc1nc(Nc2cn(C(C)(C)C#N)nc2C)ncc1C(F)(F)F (10 µM)
0: all assays above

O=[N+]([O-])c1ccc(Nc2nc(N3CCOCC3)nc(N3CCOCC3)n2)cc1 (10 µM)
0: all assays above

O=C(CNc1cccc(Cl)c1)NC1CCCN(c2ncnc3[nH]ccc23)C1 (stereo not given) (10 µM)
0: all assays above

C=CC(=O)Nc1cc(Nc2nccc(-n3cc(CN(C)C)c(-c4ccccc4)n3)n2)c(OC)cc1N1CCOCC1 [Lazertinib] (10 µM)
0: all assays above

C[C@@H]1CC(=O)c2c(ccc3c2C(=O)c2cccc(O)c2C3=O)C1 [Ochromycinone] (10 µM)
0: all assays above

Cn1cc(C2=C(c3cn(CCCSC(=N)N)c4ccccc34)C(=O)NC2=O)c2ccccc21 [Ro 31-8220 (mesylate)] (2.5 µM)
2: PDPK1 | PIK4CA
0: all other assays above

O=C(O)c1cc(N(Cc2ccccc2O)Cc2ccccc2O)ccc1O [Lavendustin B] (10 µM)
0: all assays above

CCN(CC)c1cc2oc(=O)c(-c3nc4ccccc4o3)cc2cc1C (2.5 µM)
0: all assays above

CN(C)S(=O)(=O)c1ccc2c(c1)/C(=C/c1cc3c([nH]1)CCCC3)C(=O)N2 (2.5 µM)
1: PBK
2: PDPK1
0: all other assays above

N#CC(c1ccnc(OCc2ccc(CN3CCOCC3)cc2)n1)c1nc2ccccc2s1 (stereo not given) [Bentamapimod] (2.5 µM)
0: all assays above

CC[C@@](C)(Nc1ccnc(-c2c[nH]c3ncccc23)n1)C(=O)NCC(F)(F)F [Decernotinib] (10 µM)
0: all assays above

Among those listed so far, these contain a cyano group:
Cc1nn(C)c2c1C(c1ccc(C(F)(F)F)cc1)C(C#N)=C(N)O2 (stereo not given) (10 µM)
0: all assays above

CNc1nc(Nc2cn(C(C)(C)C#N)nc2C)ncc1C(F)(F)F (10 µM)
0: all assays above

N#CC(c1ccnc(OCc2ccc(CN3CCOCC3)cc2)n1)c1nc2ccccc2s1 (stereo not given) [Bentamapimod] (2.5 µM)
0: all assays above

Continued:

COc1ncccc1-c1cnn2ccc(N3CCN(C(=O)OC(C)C)CC3)nc12 (10 µM)
0: all assays above

CC(C)(O)[C@H]1CC[C@H](Nc2ccc3ncc(-c4cccc(C(F)(F)F)c4)n3n2)CC1 (10 µM)
0: all assays above

c1ccc(-c2nc(=NCCN3CCOCC3)sn2-c2ccccc2)cc1 [VP3.15 (dihydrobromide)] (10 µM)
0: all assays above

Nc1ncnc2c1c(COc1cccc(Cl)c1)nn2C1CCOCC1 (10 µM)
0: all assays above

Cn1cc(-c2cnc3cnn(S(=O)(=O)c4cnc5ccc(-c6cnn(C)c6)cn45)c3c2)cn1 [Glumetinib] (10 µM)
0: all assays above
